{
  "source": "paper PMC4526116",
  "target": "endogenous UVRAG (wild type) of 293T cells (human (endogenous in 293T)) (UniProt Q9P2Y5)",
  "assay": "co-IP; 293T transfected with increasing amounts of Flag-UVRAG^FS and treated with IR (5 Gy); whole-cell lysates immunoprecipitated with anti-DNA-PKcs or anti-UVRAG, immunoblotted with the indicated antibodies",
  "note": "No constants are given. Whether binding was seen depends on the method and setting. Binding seen in cells or lysates may run through a third protein. Some results given as binding are weak or reduced against the parent protein; the word gives no strength.",
  "data": [
    {"substance": "Ku70/Ku80 (from UniProt P12956 1-609; P13010 1-732) (complex)", "values": [
      {"measurement": "binding", "result": "binds"}
    ]}
  ]
}
